In patent publication US20190248900A1:
These are yes or no findings as the source states them, for the method shown. Some binding calls cover weakened binding; strength is not graded here.

Protein sequences, listed by entry. Tags and fused reporters are not part of them. Lines headed by an entry give the natural chain unless they say otherwise; changes in a name come on top. Residues count along the entry.
UniProt Q15116, residues 25-167: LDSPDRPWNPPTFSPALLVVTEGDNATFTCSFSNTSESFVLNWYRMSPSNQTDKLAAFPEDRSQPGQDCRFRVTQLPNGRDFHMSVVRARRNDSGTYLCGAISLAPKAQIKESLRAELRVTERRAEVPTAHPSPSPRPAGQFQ
UniProt Q9WUL5, residues 20-221: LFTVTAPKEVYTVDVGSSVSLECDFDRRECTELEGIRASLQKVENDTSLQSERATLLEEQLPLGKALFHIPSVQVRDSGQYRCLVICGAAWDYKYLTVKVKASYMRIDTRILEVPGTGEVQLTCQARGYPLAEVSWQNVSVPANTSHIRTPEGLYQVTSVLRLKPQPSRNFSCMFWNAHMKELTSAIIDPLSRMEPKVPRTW

Molecular target: PD1-his (Catalog Number 10377-H08H, Sino Biological Inc.) (UniProt Q15116)
Assay: ELISA, 1 ug/ml

“mPDL2-mFC (from UniProt Q9WUL5) (Fc fusion)” was tested, and the binding was “binds”.
